Test results published in patent publication US20240092814A1, “WATER-SOLUBLE Pd(II) COMPLEX, METHOD FOR SYNTHESIZING SAME, AND USE THEREOF AS [sequence] PRECURSOR” (priority 2022, published 2024).
Like-named read-outs stand apart in the source and are kept apart here.

## O=C1[O][Pd]([N+](=O)[O-])([N+](=O)[O-])[O]C1=O [Pd-X6, ammonium dinitrooxalato palladium(II)]
350 ° C., water content 0%
  Conversion rate of Propane: 100%
350 ° C., water content 5%
  Conversion rate of Propane: 97.8%
350 ° C., water content 10%
  Conversion rate of Propane: 94.9%
350 ° C., water content 15%
  Conversion rate of Propane: 91.2%
350 ° C., water content 20%
  Conversion rate of Propane: 87.5%
400 ° C., water content 0%
  Conversion rate of Propane: 100%
400 ° C., water content 5%
  Conversion rate of Propane: 100%
400 ° C., water content 10%
  Conversion rate of Propane: 99.6%
400 ° C., water content 15%
  Conversion rate of Propane: 99%
400 ° C., water content 20%
  Conversion rate of Propane: 100%
450 ° C., water content 0%
  Conversion rate of Propane: 100%
450 ° C., water content 5%
  Conversion rate of Propane: 100%
450 ° C., water content 10%
  Conversion rate of Propane: 100%
450 ° C., water content 15%
  Conversion rate of Propane: 100%
450 ° C., water content 20%
  Conversion rate of Propane: 100%
500 ° C., water content 0%
  Conversion rate of Propane: 100%
500 ° C., water content 5%
  Conversion rate of Propane: 100%
500 ° C., water content 10%
  Conversion rate of Propane: 100%
500 ° C., water content 15%
  Conversion rate of Propane: 100%
500 ° C., water content 20%
  Conversion rate of Propane: 100%
